## Percent effect of library compounds

A: 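Phenotypic screen: M. tuberculosis growth, glucose 7H9 medium, 3 days; the read-out is not stated. Tested at 50 µM. Direction is inferred from retests: higher values go with more growth inhibition. About 69,000 compounds were tested under these conditions; 1.1% (about 760) showed 50% or more at least once.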
B: 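Phenotypic screen: M. tuberculosis growth, cholesterol and DPPC medium, 4 days; the read-out is not stated. Tested at 50 µM. Higher reads as more growth inhibition (inferred: compounds with an IC50 in retests scored well above the rest). About 69,000 compounds were tested under these conditions; 0.54% (about 370) showed 50% or more at least once.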

The filed quantity is “Percent Effect” (%). The record does not define 0% and 100%; most values in the screen are far below 50% and negative numbers occur (in some assays of this library far below -100). Compounds were drawn at random from those tested, without regard to their results. Two or more numbers in one place are separate tests of the same structure; such repeats can differ widely.

SMILES,A,B
COc1ccc(-c2c(C)nn3c(=N)c(C#N)n[nH]c23)cc1OC,-35.4,-16.28
O=C(O)CC(O)(CC(=O)O)C(=O)O.[H][C@@]12CC[C@@](O)(c3ccccn3)[C@]1([H])CN(Cc1cccc(Cl)c1Cl)C2,28.5,15.74
CCCn1ncc(-c2ccnc(NC3CCCc4ccccc43)n2)c1C (stereo not shown),10.38,8.422
CCn1cc(NC(=O)C2CCN(CCOC(C)C)CC2)cn1,-13.21,-20.29
c1cnn(CC2CCCN2Cc2ccc(-n3cccn3)cc2)c1 (stereo not shown),-10.42,12.01
Cn1cnnc1C1CCN(c2nc3ccccc3o2)CC1,-10.29 & -16.71,-5.937
COc1ccccc1C1(CNCc2ccc([S+](C)[O-])cc2)CC1 (stereo not shown),-12.22 & 4.743,5.249
CCc1cc(N2C[C@H](C3CC3)[C@@H](N)C2)nc(N2CCOCC2)n1,3.143 & -2.579,-0.07168
COC(=O)CNC(=O)c1sc(-c2ccc(Cl)s2)nc1C,7.883,31.02
Cc1csc2c(C3CCCN(C(=O)CCCn4cncn4)C3)nc(C)n12 (stereo not shown),7.715,3.959
CCn1nc(C)c2ccn(CC(=O)NCC3CCCO3)c(=O)c21 (stereo not shown),18.91,23.29
O=C1NCC(C(=O)N(Cc2cccc(Br)c2)C2CC2)N1 (stereo not shown),-6.794,-2.939
CNc1snc(C)c1C(=O)N1CCCC(n2ccnc2C)C1 (stereo not shown),0.257,5.423
COc1cc(CNC(=O)c2c(C)noc2C(C)C)ccn1,8.2,-10.13
[H][C@]12CC[C@]([H])(CN(CC(=O)N(C)C)C1)N(Cc1ccccc1OCCO)C2,-2.452,-7.07
O=C(O)C(F)(F)F.O=C(O)C(F)(F)F.[H][C@@]12C[C@@H](Oc3ccc(C)cc3)CN1CCN(Cc1nccn1C)C2,-0.9509 & -1.396,-9.722
CCc1noc(C)c1C(=O)NCc1c(C)nn(CCOC)c1C,23.02,0.589
CCOc1cccc(CN2CCCC(Nc3ccc(F)cc3)C2)c1O (stereo not shown),4.559 & 48.14,31.74
Cl.Cl.Cn1cc(C(=O)NCc2cncc3c2CCN(CC2CC2)C3)cn1,-19.23,-28.09
Cc1noc(C)c1-c1cccc(CC2CCN(C(=O)CN)C2)n1 (stereo not shown),9.38,19.52
CCN(CC)C(=O)Cn1c(=O)n(Cc2ccco2)c2ncccc21,13.41,-4.002
c1nnc(Nc2cncc(C3CCCN3CC3CC3)n2)s1 (stereo not shown),11.58,6.565
COCCN1CCCC(c2nc3c([nH]2)CC(C)(C)CNC3=O)C1 (stereo not shown),19.22,23.58
Cc1csc2ncc(-c3ccnc(N4CCCC[C@@H]4CO)n3)c(=O)n12,-27.15,-13.91
OCCOc1ccc(NCc2cccc3[nH]ccc23)cn1,-7.957,-2.318
CC(=O)Nc1cc(Br)cnc1OCC(F)(F)F,13.24,-10.99
COc1ccc(NC(=O)NCC(O)c2ccccc2F)c(OC)c1 (stereo not shown),-35.88,-43.06
O=C(Cn1cccn1)N1CCC(c2nnc(-c3ccsc3)o2)CC1,-16.88,-3.959 & -7.157
CCOC(=O)CNC(=O)N1CCC(OC)c2ccccc2N(C)C(=O)C1 (stereo not shown),17.37,-3.043
Cc1nn(CC(C)C)c(N(C)C)c1CNCCCNS(C)(=O)=O,-22.04,-33.3
CNc1cccc(C2CCCN(Cc3ncc[nH]3)C2)n1 (stereo not shown),-12.82,4.659
CC1c2cccn2CCN1C(=O)CCc1nc(C2CC2)no1 (stereo not shown),-0.3677 & -22.79,5.689
Cn1c(CO)cnc1SC1CCCN(c2ccccc2F)C1=O (stereo not shown),29.13,11.19
Cc1ccc2cc(C(=O)N3CCN(C(=O)N(C)C)CC3)ccc2n1,-15.13,2.906
Cc1nc(CN2CCOC(Cn3cncn3)C2)nc2ccccc12 (stereo not shown),-16.11,-1.102
OCC1(O)CCCN(Cc2ccccc2OCCc2ccccc2)CC1 (stereo not shown),8.436,3.599
Fc1ccc(-c2nc(CN3CCCC3Cn3cncn3)co2)cc1F (stereo not shown),-18.41,-18.6
O=C(Cn1nnc(-c2cc3ccccc3o2)n1)N1CCOCC1,-4.083 & -8.495,-9.173
CCN1CC2(CC1=O)CN(C(C)=O)CCN(S(=O)(=O)CC)C2 (stereo not shown),-27.86 & -8.771,-3.696
CCOCCC(=O)N(C)CC1Cc2ccccc2CN1C (stereo not shown),9.527,15.16
Cc1cc(CN2CCOC(Cn3nc(C)cc3C)C2)on1 (stereo not shown),21.83,5.456
Cc1csc(C(Cc2ccsc2)NC(=O)Cn2cccnc2=O)n1 (stereo not shown),-0.6424,-9.442
CN1CCC(c2nnc3n2CCN(S(=O)(=O)c2ccccc2Cl)C3)CC1,-3.715,-2.627 & -2.148
CS(=O)(=O)c1ccccc1N[C@@H]1c2ccccc2C[C@@H]1O,-21.06 & 9.871,-12.26
CNC(=O)c1cccc(NC(=O)NC(C)CCc2cccn2C)c1C (stereo not shown),14.41,-12.49 & -2.46
CN(C)C(=O)CC1CC2(CCN(c3ncccn3)CC2)c2ccccc21.O=C(O)C(F)(F)F (stereo not shown),10.45,11.5 & 8.109
O=C1NCC(CN2CCc3onc(-c4ccc(C(F)(F)F)cc4)c3C2)O1 (stereo not shown),13.88,17.41
O=c1[nH]c(N2CCOCC2)nc2c1CN(Cc1cccnc1)CC2,12.96,-6.771
COCCN1CCC2(C1)CN(c1ncccn1)C2.O=C(O)C(F)(F)F,-4.79 & -50.91,-9.431
CC(c1ccccc1F)N1CCN(C(=O)Cc2ccncc2)CC1 (stereo not shown),26.74,-13.51 & -2.822
Cc1ccc(O)c(CNC2CCc3nc(C)nn3C2)n1 (stereo not shown),14.64,-11.9
CC(C)N1CCC(c2ccnc3c(C(=O)N4CCOCC4)ncn23)CC1,-1.355 & -15.98,6.686
Cc1cccc(OC2CCN(c3ccc(C#N)cn3)CC2)n1,23.41,27.43 & 29.33
O=C(NCc1cc(=O)n2c(n1)CN(CC1CCOC1)CCC2)C1CC1.O=C(O)C(F)(F)F (stereo not shown),18.41,-3.948

From ChEMBL document CHEMBL3988442, “University of Dundee, Small-Polar-MMV Screening Library” (2021).